Some of the results follow.

Chains of the proteins cited; added tags and fusions are not shown. Lines headed by an entry give the natural chain unless they say otherwise; changes in a name come on top.
UniProt P38935: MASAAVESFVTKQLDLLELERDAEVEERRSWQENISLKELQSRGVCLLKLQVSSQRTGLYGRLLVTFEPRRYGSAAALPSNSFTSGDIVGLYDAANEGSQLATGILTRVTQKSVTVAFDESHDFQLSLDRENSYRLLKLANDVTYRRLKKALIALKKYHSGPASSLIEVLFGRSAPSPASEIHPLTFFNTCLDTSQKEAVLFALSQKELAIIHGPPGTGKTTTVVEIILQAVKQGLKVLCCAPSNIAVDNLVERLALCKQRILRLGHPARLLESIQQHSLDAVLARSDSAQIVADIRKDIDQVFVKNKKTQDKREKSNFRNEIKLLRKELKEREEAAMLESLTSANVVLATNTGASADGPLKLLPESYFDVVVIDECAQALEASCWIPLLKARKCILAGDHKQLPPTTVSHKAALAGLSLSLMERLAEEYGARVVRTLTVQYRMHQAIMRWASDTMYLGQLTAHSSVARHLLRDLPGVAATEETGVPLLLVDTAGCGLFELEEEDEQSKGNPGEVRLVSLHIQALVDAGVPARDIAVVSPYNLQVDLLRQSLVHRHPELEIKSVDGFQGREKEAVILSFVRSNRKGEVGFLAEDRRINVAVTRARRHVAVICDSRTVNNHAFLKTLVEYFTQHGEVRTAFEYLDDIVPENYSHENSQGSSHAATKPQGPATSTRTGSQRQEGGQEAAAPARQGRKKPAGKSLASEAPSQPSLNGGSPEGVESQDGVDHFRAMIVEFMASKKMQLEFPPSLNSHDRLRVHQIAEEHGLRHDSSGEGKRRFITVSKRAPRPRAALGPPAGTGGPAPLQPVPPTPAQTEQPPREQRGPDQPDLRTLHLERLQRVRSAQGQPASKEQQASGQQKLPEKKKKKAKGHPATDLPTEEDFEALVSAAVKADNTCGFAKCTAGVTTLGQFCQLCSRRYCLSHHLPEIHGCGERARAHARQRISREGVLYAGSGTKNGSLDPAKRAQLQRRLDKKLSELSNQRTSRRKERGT
UniProt Q8WYH8, whole entry, looked up: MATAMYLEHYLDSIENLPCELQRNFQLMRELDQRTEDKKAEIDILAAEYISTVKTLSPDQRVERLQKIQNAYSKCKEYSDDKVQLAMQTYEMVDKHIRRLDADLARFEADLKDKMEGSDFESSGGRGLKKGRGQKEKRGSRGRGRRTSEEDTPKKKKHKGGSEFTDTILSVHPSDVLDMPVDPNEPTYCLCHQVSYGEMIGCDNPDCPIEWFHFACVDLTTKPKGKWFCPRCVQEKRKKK
UniProt O14879: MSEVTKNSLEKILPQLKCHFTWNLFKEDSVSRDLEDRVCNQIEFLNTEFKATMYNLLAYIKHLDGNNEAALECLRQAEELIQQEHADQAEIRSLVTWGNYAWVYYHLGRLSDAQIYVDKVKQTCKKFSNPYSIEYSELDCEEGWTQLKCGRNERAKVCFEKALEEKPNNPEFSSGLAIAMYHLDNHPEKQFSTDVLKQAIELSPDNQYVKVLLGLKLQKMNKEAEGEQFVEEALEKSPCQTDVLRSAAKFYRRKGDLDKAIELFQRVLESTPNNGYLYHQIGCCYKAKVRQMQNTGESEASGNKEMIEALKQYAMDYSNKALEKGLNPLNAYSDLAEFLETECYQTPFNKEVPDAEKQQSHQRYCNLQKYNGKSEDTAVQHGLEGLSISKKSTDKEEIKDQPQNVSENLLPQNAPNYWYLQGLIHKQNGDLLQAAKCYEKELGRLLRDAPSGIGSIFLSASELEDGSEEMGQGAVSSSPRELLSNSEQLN
UniProt Q9NWB7: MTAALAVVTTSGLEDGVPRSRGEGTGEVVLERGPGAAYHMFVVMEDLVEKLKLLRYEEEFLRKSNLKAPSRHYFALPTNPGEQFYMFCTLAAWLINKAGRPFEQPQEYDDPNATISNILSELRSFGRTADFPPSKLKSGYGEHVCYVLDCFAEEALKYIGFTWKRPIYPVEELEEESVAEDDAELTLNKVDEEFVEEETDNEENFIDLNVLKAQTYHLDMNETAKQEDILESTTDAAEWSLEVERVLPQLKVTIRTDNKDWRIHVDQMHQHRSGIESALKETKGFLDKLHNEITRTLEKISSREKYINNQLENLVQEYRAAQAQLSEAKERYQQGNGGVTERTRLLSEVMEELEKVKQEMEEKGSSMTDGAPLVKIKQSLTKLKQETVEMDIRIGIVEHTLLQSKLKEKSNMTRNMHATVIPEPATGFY
UniProt O60725, whole entry, looked up: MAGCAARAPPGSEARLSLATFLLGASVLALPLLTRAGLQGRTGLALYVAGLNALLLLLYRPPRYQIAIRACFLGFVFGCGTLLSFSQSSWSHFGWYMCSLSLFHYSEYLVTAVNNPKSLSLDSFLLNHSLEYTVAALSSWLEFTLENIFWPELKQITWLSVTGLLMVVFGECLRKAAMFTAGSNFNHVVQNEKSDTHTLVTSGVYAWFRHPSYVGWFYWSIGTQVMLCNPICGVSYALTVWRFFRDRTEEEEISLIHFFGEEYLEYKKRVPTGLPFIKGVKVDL
UniProt P50213: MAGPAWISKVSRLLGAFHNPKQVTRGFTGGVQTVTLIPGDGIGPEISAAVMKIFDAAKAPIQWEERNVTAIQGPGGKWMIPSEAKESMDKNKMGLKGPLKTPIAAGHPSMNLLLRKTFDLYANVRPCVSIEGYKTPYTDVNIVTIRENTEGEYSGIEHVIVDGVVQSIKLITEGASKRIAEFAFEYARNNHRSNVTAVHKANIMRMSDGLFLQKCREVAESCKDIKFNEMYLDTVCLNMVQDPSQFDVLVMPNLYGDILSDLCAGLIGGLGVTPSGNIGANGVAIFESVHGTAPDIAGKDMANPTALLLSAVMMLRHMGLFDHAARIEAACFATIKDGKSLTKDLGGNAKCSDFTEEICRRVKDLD
UniProt Q96EW2: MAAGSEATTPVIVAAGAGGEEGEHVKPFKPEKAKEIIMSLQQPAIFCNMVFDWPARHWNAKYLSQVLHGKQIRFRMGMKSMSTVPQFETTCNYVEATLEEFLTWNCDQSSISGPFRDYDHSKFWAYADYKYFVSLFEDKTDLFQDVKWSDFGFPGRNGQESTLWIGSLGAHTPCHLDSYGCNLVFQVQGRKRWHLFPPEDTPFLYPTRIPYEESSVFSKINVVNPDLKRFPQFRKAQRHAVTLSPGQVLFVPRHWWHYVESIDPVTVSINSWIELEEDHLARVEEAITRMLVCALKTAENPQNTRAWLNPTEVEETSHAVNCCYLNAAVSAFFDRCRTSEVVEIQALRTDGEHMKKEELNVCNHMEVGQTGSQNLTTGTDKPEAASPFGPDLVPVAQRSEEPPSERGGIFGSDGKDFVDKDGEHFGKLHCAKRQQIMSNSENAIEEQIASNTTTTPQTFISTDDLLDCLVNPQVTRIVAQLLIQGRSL
UniProt Q9H7X7: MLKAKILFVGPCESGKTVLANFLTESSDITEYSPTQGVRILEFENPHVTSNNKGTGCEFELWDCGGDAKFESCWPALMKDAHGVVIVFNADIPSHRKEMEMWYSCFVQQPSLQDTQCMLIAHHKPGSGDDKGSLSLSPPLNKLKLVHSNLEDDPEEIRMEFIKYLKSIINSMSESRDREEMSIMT
UniProt Q8NBZ0, whole entry, looked up: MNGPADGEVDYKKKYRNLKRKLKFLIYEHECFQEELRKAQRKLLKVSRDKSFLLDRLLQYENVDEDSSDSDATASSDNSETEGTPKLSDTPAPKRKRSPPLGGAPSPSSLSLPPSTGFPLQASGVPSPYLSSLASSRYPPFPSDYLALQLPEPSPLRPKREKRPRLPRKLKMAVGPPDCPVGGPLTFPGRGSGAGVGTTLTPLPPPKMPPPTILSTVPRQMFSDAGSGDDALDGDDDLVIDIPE
UniProt Q96LU5: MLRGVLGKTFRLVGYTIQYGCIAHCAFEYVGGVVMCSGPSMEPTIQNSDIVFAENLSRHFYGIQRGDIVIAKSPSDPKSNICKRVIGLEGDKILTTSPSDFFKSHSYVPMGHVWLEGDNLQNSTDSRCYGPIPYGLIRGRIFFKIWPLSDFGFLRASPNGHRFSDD
UniProt Q9HBG6: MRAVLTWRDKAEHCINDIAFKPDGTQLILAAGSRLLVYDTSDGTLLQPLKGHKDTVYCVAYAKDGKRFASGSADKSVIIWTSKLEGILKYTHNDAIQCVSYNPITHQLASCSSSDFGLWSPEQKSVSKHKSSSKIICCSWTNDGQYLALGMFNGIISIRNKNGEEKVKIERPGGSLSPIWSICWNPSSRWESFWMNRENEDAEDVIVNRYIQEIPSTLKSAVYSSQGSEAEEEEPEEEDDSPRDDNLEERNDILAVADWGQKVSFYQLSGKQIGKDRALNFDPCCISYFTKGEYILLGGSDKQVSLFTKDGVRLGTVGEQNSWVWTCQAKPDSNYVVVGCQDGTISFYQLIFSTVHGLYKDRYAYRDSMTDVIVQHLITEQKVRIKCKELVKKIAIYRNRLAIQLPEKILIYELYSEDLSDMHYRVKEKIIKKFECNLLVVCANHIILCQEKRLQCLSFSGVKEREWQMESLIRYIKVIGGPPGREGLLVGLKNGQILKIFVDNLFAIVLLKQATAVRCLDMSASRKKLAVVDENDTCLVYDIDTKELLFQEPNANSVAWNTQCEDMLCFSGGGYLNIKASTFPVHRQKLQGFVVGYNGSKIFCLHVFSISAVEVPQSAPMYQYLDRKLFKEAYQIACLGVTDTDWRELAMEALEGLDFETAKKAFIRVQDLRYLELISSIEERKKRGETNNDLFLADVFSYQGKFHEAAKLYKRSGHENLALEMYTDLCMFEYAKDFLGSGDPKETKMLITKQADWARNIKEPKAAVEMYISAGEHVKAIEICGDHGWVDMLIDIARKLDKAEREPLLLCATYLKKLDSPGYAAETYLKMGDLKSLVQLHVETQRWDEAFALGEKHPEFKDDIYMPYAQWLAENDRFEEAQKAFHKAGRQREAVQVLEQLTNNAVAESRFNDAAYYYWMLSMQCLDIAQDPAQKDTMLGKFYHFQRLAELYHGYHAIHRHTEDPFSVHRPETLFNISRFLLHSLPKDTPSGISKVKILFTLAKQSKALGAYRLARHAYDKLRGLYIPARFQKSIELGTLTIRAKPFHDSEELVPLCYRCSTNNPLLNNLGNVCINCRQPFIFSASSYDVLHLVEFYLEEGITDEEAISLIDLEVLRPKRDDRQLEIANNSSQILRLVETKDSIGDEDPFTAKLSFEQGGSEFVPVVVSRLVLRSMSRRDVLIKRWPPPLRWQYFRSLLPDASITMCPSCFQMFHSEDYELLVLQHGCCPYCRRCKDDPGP
UniProt Q6UWB1, whole entry, looked up: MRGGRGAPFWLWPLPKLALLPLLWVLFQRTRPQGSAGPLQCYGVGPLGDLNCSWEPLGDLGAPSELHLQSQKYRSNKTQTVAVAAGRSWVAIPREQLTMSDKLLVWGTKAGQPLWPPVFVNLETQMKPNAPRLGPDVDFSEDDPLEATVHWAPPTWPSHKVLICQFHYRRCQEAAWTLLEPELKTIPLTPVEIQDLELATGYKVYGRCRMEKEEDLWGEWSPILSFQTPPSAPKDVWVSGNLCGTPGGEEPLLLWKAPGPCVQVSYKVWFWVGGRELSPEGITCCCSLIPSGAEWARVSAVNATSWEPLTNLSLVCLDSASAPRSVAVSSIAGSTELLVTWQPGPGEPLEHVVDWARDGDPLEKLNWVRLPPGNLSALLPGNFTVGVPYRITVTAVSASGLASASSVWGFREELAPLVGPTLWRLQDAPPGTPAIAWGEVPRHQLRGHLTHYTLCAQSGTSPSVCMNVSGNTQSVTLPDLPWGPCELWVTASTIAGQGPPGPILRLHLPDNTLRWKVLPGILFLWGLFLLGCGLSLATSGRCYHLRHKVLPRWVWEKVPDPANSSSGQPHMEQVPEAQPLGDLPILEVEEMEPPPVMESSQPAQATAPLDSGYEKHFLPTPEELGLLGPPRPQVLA
UniProt P58166: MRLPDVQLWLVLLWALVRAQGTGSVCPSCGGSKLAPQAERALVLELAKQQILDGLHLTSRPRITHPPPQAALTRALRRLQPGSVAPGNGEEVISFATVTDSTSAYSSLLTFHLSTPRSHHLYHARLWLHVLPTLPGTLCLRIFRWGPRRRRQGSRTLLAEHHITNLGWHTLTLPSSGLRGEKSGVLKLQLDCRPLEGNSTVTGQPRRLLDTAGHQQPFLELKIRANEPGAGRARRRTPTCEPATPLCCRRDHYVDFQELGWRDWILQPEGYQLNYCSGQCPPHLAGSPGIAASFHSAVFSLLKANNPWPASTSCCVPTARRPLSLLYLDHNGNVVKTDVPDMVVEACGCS
UniProt A2RU49: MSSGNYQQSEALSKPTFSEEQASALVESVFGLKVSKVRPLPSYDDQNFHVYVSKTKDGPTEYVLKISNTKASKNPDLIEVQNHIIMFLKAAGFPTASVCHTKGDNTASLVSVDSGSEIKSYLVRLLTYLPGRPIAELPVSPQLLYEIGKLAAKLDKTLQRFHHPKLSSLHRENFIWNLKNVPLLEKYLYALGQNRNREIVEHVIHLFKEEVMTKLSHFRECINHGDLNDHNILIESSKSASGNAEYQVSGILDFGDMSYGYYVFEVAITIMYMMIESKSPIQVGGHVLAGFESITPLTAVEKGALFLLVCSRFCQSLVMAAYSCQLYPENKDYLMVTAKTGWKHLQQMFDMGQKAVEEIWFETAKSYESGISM

Compound in the first test: CC1=C(C2=C(C=C1)C(=O)C3=CC=CC=C3N2CCCN)C
As to the kind of experiment: log2 fold change, soluble protein after heating vs DMSO (PISA); higher = thermal stabilisation; K562 lysate, 10 uM; active = over 0.2 and 3.5 SD of the protein, either way, in both replicates (recomputed). The gist of the method:
(§1)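 Log-two fold change in thermal stability relative to solvent controls is reported from duplicates. For each sample, crude K562 extract from dounce-homogenised pellets in PBS pH 7.4 with 1 mM MgCl2, at 1 mg/mL protein, was treated with 10 μM compound for 30 min. Aliquots heated for 3 min across 48°C-58°C were pooled, brought to 0.5% NP-40 at 4°C and cleared at 21,000xg for 90 min. The supernatant was quantified by TMTpro 16plex LC-MS/MS with channel sums equalised.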
As to IGHMBP2 (UniProt P38935), the log2 fold change is inactive: 0.025.
On the same count and under the same terms, in the case of ING1 (UniProt Q9UK53) it was inactive: 0.
Consider IGLC3 (UniProt P0DOY3), for which the log2 fold change is inactive: 0.113.
The same measure, in the same setting: under HYDIN (UniProt Q4G0P3) stands inactive: -0.05.
As to ING5 (UniProt Q8WYH8), the log2 fold change was inactive: -0.054.
The same measure, in the same setting: under HSPA8 (UniProt E9PN89) stands inactive: 0.017.
The same measure, in the same setting: in the case of IGFBP4 (UniProt P22692) it was inactive: 0.236.
The same measure, in the same setting: under INO80B (UniProt Q9C086) stands inactive: -0.327; under IFIT3 (UniProt O14879), inactive: 0.081.
Take IMPDH2 (UniProt H0Y4R1): the log2 fold change is inactive: 0.032.
Same read-out and setting: in the case of IFT57 (UniProt Q9NWB7) it was inactive: -0.047; in that of ICMT (UniProt O60725), inactive: 0.053.
As for HYOU1, A0A494C039, the log2 fold change was inactive: -0.13.
Still for that read-out and setting: in the case of IDH3A isoform 2 (UniProt P50213) it was inactive: -0.111; in that of HSPBAP1 (UniProt Q96EW2), inactive: -0.324.
The same measure, in the same setting: under IGKC (UniProt P01834) stands inactive: -0.095.
Same read-out and setting: in the case of IFT22 (UniProt Q9H7X7) it was inactive: 0.099.
Consider INO80E (UniProt Q8NBZ0), for which the log2 fold change was inactive: 0.037.
Same read-out and setting: under IMMP1L (UniProt Q96LU5) stands inactive: -0.037; under IFT122 isoform 5 (UniProt Q9HBG6), inactive: -0.011; under IL27RA (UniProt Q6UWB1), inactive: 0.08.

Compound in another test: CC1=C(C=C(C=C1)NC(=O)C2=CC(=CC=C2)C(C)(C)C#N)NC3=CC4=C(C=C3)N=CN(C4=O)C
Described as above. Put shortly: as §1
As to INHBE (UniProt P58166), the log2 fold change is inactive: 0.042.
The same measure, in the same setting: in the case of IGHMBP2 (UniProt P38935) it was inactive: -0.232; in that of ING1 (UniProt Q9UK53), inactive: -0.004.
The same measure, in the same setting: under IFT52 (UniProt Q9Y366) stands inactive: 0.097.
The same measure, in the same setting: in the case of HSPA8 (UniProt E9PN89) it was inactive: 0.093; in that of IGFBP4 (UniProt P22692), inactive: 0.123; in that of IFIT3 (UniProt O14879), inactive: 0.121.
In the case of IMPDH2 (UniProt H0Y4R1), the log2 fold change was inactive: -0.04.
On the same count and under the same terms, under IFT57 (UniProt Q9NWB7) stands inactive: 0.082.
Still for that read-out and setting: under ICMT (UniProt O60725) stands inactive: 0.091.
Still for that read-out and setting: under HYKK (UniProt A2RU49) stands inactive: 0.092; under HSPBAP1 (UniProt Q96EW2), inactive: 0.002.
Consider INO80E (UniProt Q8NBZ0), for which the log2 fold change was inactive: 0.122.
Still for that read-out and setting: under IMMP1L (UniProt Q96LU5) stands inactive: -0.007.
Same read-out and setting: under IFT122 isoform 5 (UniProt Q9HBG6) stands inactive: -0.331; under INPP5E (UniProt Q9NRR6), inactive: 0.128; under HTD2 (UniProt P86397), inactive: -0.026.
On to IL27RA (UniProt Q6UWB1), for which the log2 fold change was inactive: 0.02.

Values taken from the supplement of paper PMC10849652.
